# Data as given in PubChem BioAssay AID743454 (Peter MacCallum Cancer Centre, 2014)
# Test: 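Genes whose loss kills vorinostat-resistant colon cancer cells under vorinostat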 (primary screen)
# Cell system: human HCT116-VR colon cancer cells, selected for vorinostat resistance
# Reagent: siRNA pool against human genes, 40 nM siRNA pool
# Timing: vorinostat for 24 h, read-out about 72 h after transfection
# Conditions: vorinostat at 2.5 µM final
# Measurement: 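Cell viability by CellTiter-Fluor and caspase 3/7 activity by luminescence, each scaled to mock wells per plate, duplicates averaged, then robust z-scored over all plates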
# Reading the numbers: viability robust z-score: higher = more viable cells than screen typical; caspase robust z-score: higher = more caspase 3/7 activity than screen typical
# Hit rule: 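Hits are knock-downs in viability class RV1/RV2 or caspase class CA1/CA2, excluding ones that killed cells in the no-drug cell-count arm; hits then retested with single siRNAs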
# Here is one part, drawn at random, of about 18,000 reagents tested. In the full data, 450 (2.5%) were called active. 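Single biological run; no consistent viability z cut-off exists, so the class columns, not z-scores, define the calls.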
target gene,viability hit class,caspase hit class,viability robust z-score,caspase robust z-score,Outcome
SNX4 (sorting nexin 4),no change,no change,-0.32,2.63,inactive
CPVL (carboxypeptidase vitellogenic like),no change,no change,0.91,-0.53,inactive
ARL6IP1 (ARL6 interacting reticulophagy regulator 1),no change,no change,0.64,-0.9,inactive
GRAMD1A (GRAM domain containing 1A),no change,no change,-0.26,0.59,inactive
VSTM2A (V-set and transmembrane domain containing 2A),no change,no change,0.04,-0.65,inactive
CCDC102A (coiled-coil domain containing 102A),no change,no change,-0.41,1.46,inactive
MROH8 (maestro heat like repeat family member 8),no change,no change,0.69,-0.48,inactive
NTN3 (netrin 3),no change,no change,-0.82,2.01,inactive
DCUN1D1 (defective in cullin neddylation 1 domain containing 1),no change,no change,-0.24,-0.18,inactive
PANK4 (pantothenate kinase 4 (inactive)),no change,no change,-2.69,-0.57,inactive
WNT2B (Wnt family member 2B),no change,no change,1.73,-0.06,inactive
PUDP (pseudouridine 5'-phosphatase),no change,no change,0.38,1.82,inactive
HUWE1,no change,no change,-0.22,0.11,inactive

Next part (5 carried over from the part before).
target gene,viability hit class,caspase hit class,viability robust z-score,caspase robust z-score,Outcome
DCUN1D1 (defective in cullin neddylation 1 domain containing 1),no change,no change,-0.24,-0.18,inactive
PANK4 (pantothenate kinase 4 (inactive)),no change,no change,-2.69,-0.57,inactive
WNT2B (Wnt family member 2B),no change,no change,1.73,-0.06,inactive
PUDP (pseudouridine 5'-phosphatase),no change,no change,0.38,1.82,inactive
HUWE1,no change,no change,-0.22,0.11,inactive
ERN1 (endoplasmic reticulum to nucleus signaling 1),no change,no change,-1.06,0.47,inactive
AGMO (alkylglycerol monooxygenase),no change,no change,-0.2,-0.42,inactive
BCL6B (BCL6B transcription repressor),no change,no change,1.31,0.46,inactive
SEMA3F (semaphorin 3F),no change,no change,-0.14,-1.16,inactive
AKAP9 (A-kinase anchoring protein 9),no change,no change,1.3,0.34,inactive
C3orf52 (chromosome 3 open reading frame 52),no change,no change,-0.52,-0.79,inactive
TCTN2 (tectonic family member 2),no change,no change,0.85,-0.34,inactive
CENPT (centromere protein T),no change,no change,1.16,1.49,inactive
"PSMD14 (proteasome 26S subunit, non-ATPase 14)",no change,no change,-3.87,2.03,inactive
PML (PML nuclear body scaffold),no change,no change,-0.21,-0.37,inactive
HOXD11 (homeobox D11),no change,no change,-1.44,0.7,inactive
CANT1 (calcium activated nucleotidase 1),no change,no change,0.65,0.22,inactive
XPNPEP1 (X-prolyl aminopeptidase 1),no change,no change,0.5,0.6,inactive
OR4L1 (olfactory receptor family 4 subfamily L member 1),no change,no change,-0.5,-1.06,inactive
PYCARD (PYD and CARD domain containing),no change,no change,0.2,-0.99,inactive
CETN3 (centrin 3),no change,no change,-1.46,0.68,inactive
TRIM6 (tripartite motif containing 6),no change,no change,-0.99,-1.61,inactive
LRG1 (leucine rich alpha-2-glycoprotein 1),no change,no change,0.42,-0.72,inactive
JAG2 (jagged canonical Notch ligand 2),no change,no change,-0.94,0.38,inactive
SNPH (syntaphilin),no change,no change,-0.6,3.19,inactive
"COQ7 (coenzyme Q7, hydroxylase)",no change,no change,1.14,-0.73,inactive
PCDHB14 (protocadherin beta 14),no change,no change,1.06,-0.29,inactive
RPUSD4 (RNA pseudouridine synthase D4),no change,no change,-0.45,-0.15,inactive
PNMA8B (PNMA family member 8B),no change,no change,-1.05,0.32,inactive
EPHA6 (EPH receptor A6),no change,no change,-2.68,-1,inactive
ZDHHC18 (zDHHC palmitoyltransferase 18),no change,no change,-0.18,-0.43,inactive
